Measurements reported in PubChem BioAssay AID1259405 (NCATS, 2018)

Test: 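Knock-downs that lift recombinant protein yield in hamster ovary cells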 (primary screen)
Cells: Chinese hamster CHO-K1 ovary cells with stable secreted eGFP expression
Reagent: single siRNA against mouse genes, 0.8 pmol siRNA per well (2 µl of 400 nM stock)
Time to read-out: 3 days
Detection: 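Percent of the per-plate non-targeting control median for intracellular GFP per well by laser scanning cytometry and for cell viability by ATP luminescence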
Direction: GFP, % of control: higher = more GFP per well, higher productivity; viability (ATP), % of control: higher = more viable cells (more ATP)
Rule for the call: 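Called active when intracellular GFP, relative to negative control, is at or above 120%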
The whole screen tested about 50,000 reagents; shown is an unselected part. In the full data, about 4,000 (8%) were called active. 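Mouse siRNA library applied to hamster cells; one well for each siRNA.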 Reagents against one gene are numbered here.

| gene | reagent no. | GFP, % of control | viability (ATP), % of control | Outcome |
| --- | --- | --- | --- | --- |
| Zfp97 (zinc finger protein 97) | 1 | 72.6 | 82 | inactive |
| Zfp97 (zinc finger protein 97) | 2 | 105 | 96.2 | inactive |
| Zfp97 (zinc finger protein 97) | 3 | 74 | 59.1 | inactive |
| Plekhj1 (pleckstrin homology domain containing J1) | 1 | 185 | 93.8 | active |
| Plekhj1 (pleckstrin homology domain containing J1) | 2 | 132 | 63.5 | active |
| Plekhj1 (pleckstrin homology domain containing J1) | 3 | 145 | 122 | active |
| Capn5 (calpain 5) | 1 | 95.3 | 50.5 | inactive |
| Capn5 (calpain 5) | 2 | 74 | 64.1 | inactive |
| C1qtnf6 (C1q and tumor necrosis factor related protein 6) | 1 | 50.4 | 23.9 | inactive |
| C1qtnf6 (C1q and tumor necrosis factor related protein 6) | 2 | 44.1 | 68.2 | inactive |
| C1qtnf6 (C1q and tumor necrosis factor related protein 6) | 3 | 89.7 | 63.7 | inactive |
| Col23a1 (collagen, type XXIII, alpha 1) | 1 | 73.2 | 72.8 | inactive |
| Col23a1 (collagen, type XXIII, alpha 1) | 2 | 140 | 101 | active |
| Col23a1 (collagen, type XXIII, alpha 1) | 3 | 103 | 83.7 | inactive |
| Sec16b (SEC16 homolog B, endoplasmic reticulum export factor) | 1 | 134 | 111 | active |
| Sec16b (SEC16 homolog B, endoplasmic reticulum export factor) | 2 | 45 | 52 | inactive |
| Sec16b (SEC16 homolog B, endoplasmic reticulum export factor) | 3 | 63 | 67.1 | inactive |
| Wdr95 (WD40 repeat domain 95) | 1 | 72.8 | 70.9 | inactive |
| Wdr95 (WD40 repeat domain 95) | 2 | 51.2 | 42.8 | inactive |
| Wdr95 (WD40 repeat domain 95) | 3 | 80.7 | 85.9 | inactive |
| Rnf181 (ring finger protein 181) | 1 | 75.3 | 79.6 | inactive |
| Rnf181 (ring finger protein 181) | 2 | 60.7 | 65.6 | inactive |
| Rnf181 (ring finger protein 181) | 3 | 147 | 81.7 | active |
| Siral2 (SIR2 antiphage like 2) | 1 | 63.7 | 52.3 | inactive |
| Siral2 (SIR2 antiphage like 2) | 2 | 21.9 | 40.9 | inactive |
| Siral2 (SIR2 antiphage like 2) | 3 | 80.1 | 97.8 | inactive |
| Hes7 (hes family bHLH transcription factor 7) | 1 | 53.8 | 43.6 | inactive |
| Hes7 (hes family bHLH transcription factor 7) | 2 | 81.8 | 71.9 | inactive |
| Hes7 (hes family bHLH transcription factor 7) | 3 | 91.1 | 92.4 | inactive |
| Arl6ip5 (ADP-ribosylation factor-like 6 interacting protein 5) | 1 | 78 | 70.3 | inactive |
| Arl6ip5 (ADP-ribosylation factor-like 6 interacting protein 5) | 2 | 55.9 | 51.8 | inactive |
| Arl6ip5 (ADP-ribosylation factor-like 6 interacting protein 5) | 3 | 77.6 | 44.7 | inactive |
| Astn2 (astrotactin 2) | 1 | 98.5 | 92 | inactive |
| Astn2 (astrotactin 2) | 2 | 68.6 | 74.2 | inactive |
| Astn2 (astrotactin 2) | 3 | 83.2 | 91.5 | inactive |
| Hhex (hematopoietically expressed homeobox) | 1 | 61.3 | 73.7 | inactive |
| Hhex (hematopoietically expressed homeobox) | 2 | 96.4 | 88.4 | inactive |
| Hhex (hematopoietically expressed homeobox) | 3 | 66.7 | 59.9 | inactive |
| Rnps1 (RNA binding protein with serine rich domain 1) | 1 | 81.4 | 88.6 | inactive |
| Rnps1 (RNA binding protein with serine rich domain 1) | 2 | 91.5 | 85.3 | inactive |
| Rnps1 (RNA binding protein with serine rich domain 1) | 3 | 47.3 | 45.8 | inactive |
| Kmt5c (lysine methyltransferase 5C) | 1 | 84.9 | 77.5 | inactive |
| Kmt5c (lysine methyltransferase 5C) | 2 | 109 | 128 | inactive |
| Kmt5c (lysine methyltransferase 5C) | 3 | 107 | 133 | inactive |
| Vmn1r227 (vomeronasal 1 receptor 227) | 1 | 62.7 | 39.3 | inactive |
| Vmn1r227 (vomeronasal 1 receptor 227) | 2 | 84.5 | 79.2 | inactive |
| Vmn1r227 (vomeronasal 1 receptor 227) | 3 | 52.3 | 53.2 | inactive |
| Pomgnt2 | 1 | 68.9 | 47.4 | inactive |
| Pomgnt2 | 2 | 81.9 | 94.4 | inactive |
| Pomgnt2 | 3 | 82 | 39.3 | inactive |
| Alg14 (asparagine-linked glycosylation 14) | 1 | 98.2 | 83.2 | inactive |
| Alg14 (asparagine-linked glycosylation 14) | 2 | 74.2 | 70.6 | inactive |
| Alg14 (asparagine-linked glycosylation 14) | 3 | 35.9 | 43.4 | inactive |
| Tmem106c (transmembrane protein 106C) | 1 | 81.3 | 107 | inactive |
| Tmem106c (transmembrane protein 106C) | 2 | 52.5 | 76.1 | inactive |
| Tmem106c (transmembrane protein 106C) | 3 | 71.6 | 101 | inactive |
| Phf20 (PHD finger protein 20) | 1 | 50.4 | 76.1 | inactive |
| Phf20 (PHD finger protein 20) | 2 | 67.7 | 83.8 | inactive |
| Api5 (apoptosis inhibitor 5) | 1 | 103 | 62.6 | inactive |
| Api5 (apoptosis inhibitor 5) | 2 | 107 | 86.9 | inactive |
| Api5 (apoptosis inhibitor 5) | 3 | 4.51 | 13.8 | inactive |
| Vdac3 (voltage-dependent anion channel 3) | 1 | 88.3 | 78.9 | inactive |
| Vdac3 (voltage-dependent anion channel 3) | 2 | 50.9 | 57.5 | inactive |
| Vdac3 (voltage-dependent anion channel 3) | 3 | 90.8 | 73.2 | inactive |
| Tinf2 (Terf1 (TRF1)-interacting nuclear factor 2) | 1 | 78 | 82.6 | inactive |
| Tinf2 (Terf1 (TRF1)-interacting nuclear factor 2) | 2 | 68.2 | 115 | inactive |
| Tinf2 (Terf1 (TRF1)-interacting nuclear factor 2) | 3 | 64.3 | 72.4 | inactive |
| Hnrnpr (heterogeneous nuclear ribonucleoprotein R) | 1 | 101 | 98.9 | inactive |
| Hnrnpr (heterogeneous nuclear ribonucleoprotein R) | 2 | 71.9 | 95 | inactive |
| Hnrnpr (heterogeneous nuclear ribonucleoprotein R) | 3 | 66.7 | 94 | inactive |
| Ttf2 (transcription termination factor, RNA polymerase II) | 1 | 41.6 | 47.9 | inactive |
| Ttf2 (transcription termination factor, RNA polymerase II) | 2 | 93.4 | 66.1 | inactive |
| Ttf2 (transcription termination factor, RNA polymerase II) | 3 | 141 | 100 | active |
| Pkd2 (polycystin 2, transient receptor potential cation channel) | 1 | 102 | 101 | inactive |
| Pkd2 (polycystin 2, transient receptor potential cation channel) | 2 | 107 | 90.5 | inactive |
| Pkd2 (polycystin 2, transient receptor potential cation channel) | 3 | 104 | 77.8 | inactive |
| Nup42 (nucleoporin 42) | 1 | 51.8 | 49 | inactive |
| Nup42 (nucleoporin 42) | 2 | 105 | 129 | inactive |
| Nup42 (nucleoporin 42) | 3 | 96.7 | 97 | inactive |
| Cebpd (CCAAT/enhancer binding protein delta) | 1 | 64.8 | 38.9 | inactive |
| Cebpd (CCAAT/enhancer binding protein delta) | 2 | 78.2 | 73.7 | inactive |
| Cebpd (CCAAT/enhancer binding protein delta) | 3 | 96.9 | 92.4 | inactive |
| Fam243 (family with sequence similarity 243) | 1 | 96.4 | 67.4 | inactive |
| Fam243 (family with sequence similarity 243) | 2 | 94.2 | 69.8 | inactive |
| Fam243 (family with sequence similarity 243) | 3 | 87.2 | 76.7 | inactive |
